Measurements from publication PMC5234120, “Age-related macular degeneration associated polymorphism rs10490924 in ARMS2 results in deficiency of a complement activator” (Journal of Neuroinflammation, 2017).
Results are given in words; binding and its absence hold for the method and conditions named.

Tests used:
factor B = assay: ELISA; complement proteins (each 500 ng in PBS) coated on MediSorp plates; 500 ng ARMS2 in 2% BSA, 0.05% Tween-20 in PBS, 1 h RT; ARMS2 detected with ARMS2 antiserum; both purified
iC3b = assay: as above

binding (factor B): no binding (tested: 500 ng ARMS2)
binding (iC3b): no binding (tested: 500 ng ARMS2)
B1: recombinant ARMS2 (age-related maculopathy susceptibility 2) (natural protein, human, UniProt P0C7Q2 1-107, looked up)
chain: MLRLYPGPMVTEAEGKGGPEMASLSSSVVPVSFISTLRESVLDPGVGGEGASDKQRSKLSLSHSMIPAAKIHTELCLPAFFSPAGTQRRFQQPQHHLTLSIIHTAAR
notes: ARMS2, human, codon usage optimized full length cDNA; Glycosylated in P. pastoris (17 and 15 kDa bands); also called His-tagged ARMS2; rARMS2
